Literature values as cited in patent US20100179144A1, “QUINAZOLINE DERIVATIVES AS P13 KINASE INHIBITORS” (priority 2007, published 2010).

Protein sequences, listed by entry. Tags and fused reporters are not part of them.
UniProt P68400, whole entry: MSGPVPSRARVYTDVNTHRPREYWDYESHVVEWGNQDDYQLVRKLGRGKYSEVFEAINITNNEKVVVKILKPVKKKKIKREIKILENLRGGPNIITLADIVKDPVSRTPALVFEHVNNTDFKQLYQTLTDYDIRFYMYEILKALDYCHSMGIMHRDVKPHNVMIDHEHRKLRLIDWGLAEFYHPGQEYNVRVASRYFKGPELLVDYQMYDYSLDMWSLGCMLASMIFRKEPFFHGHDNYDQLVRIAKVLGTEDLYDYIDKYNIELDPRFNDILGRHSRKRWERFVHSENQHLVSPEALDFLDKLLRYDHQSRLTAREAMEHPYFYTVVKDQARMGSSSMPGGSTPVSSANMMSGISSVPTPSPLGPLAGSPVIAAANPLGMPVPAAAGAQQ

Assays:
CK2 protein kinase = CK2 protein kinase (Homo sapiens, UniProt P68400); conditions: literature value
Class I PI3-kinases = conditions: literature value; read-out: IC50 against each of the various Class I PI3-kinases

Structure (SMILES)	IC50 (CK2 protein kinase) [nM]	IC50 (Class I PI3-kinases) [nM]
O=c1cc(N2CCOCC2)oc2c(-c3ccccc3)cccc12 [LY294002]	5000 to 10000	–
COC[C@H]1OC(=O)c2coc3c2[C@@]1(C)C1=C(C3=O)[C@@H]2CCC(=O)[C@@]2(C)C[C@H]1OC(C)=O [wortmannin]	–	1 to 10
